Source: PubChem BioAssay AID1347075 (National Center for Advancing Translational Sciences (NCATS), 2019)
Out of some 400,000 compounds screened, about 5,500 (1.4%) were called active. Inconclusive means that the source gave no clear call. Such entries were picked first, then a sample of the others. The call rests on the fitted dose curve; in most records, active means well fitted cell-killing curve with a large enough effect; inconclusive means small, poorly fitted or top-dose-only effect, or effect the other way; inactive means flat fitted curve, though single readings scatter. A potency beside an inconclusive call is a rough fit, not a confirmed value.

experiment: qHTS assay for MDR1-selective chemotherapeutics: Primary screen using the parental adenocarcinoma cell KB-3-1; details: KB-3-1 viability, CellTiter-Glo ATP luminescence, 72 h; series mostly up to 46.1 µM; further: nearly all actives have a fitted effect of over 60% in size
Summary of the method: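 Using CellTiter-Glo luminescence, growth of non-resistant KB-3-1 adenocarcinoma cells is assessed 72 h after pin-tool compound addition at 37 °C. Normalized responses across the concentration series yield fitted curves.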
Potency means the concentration at half of the fitted maximal effect.

Q: Which Potency does the source give for COc1ccc(NC(=O)/C(C#N)=C/c2ccc(OCc3ccccc3F)cc2)cc1 here?
A: inconclusive: 18.4 µM [rising, single point]

Q: With COc1ccc(-c2ccc(-c3nc4c(c(=O)[nH]c(=O)n4Cc4ccccc4)n3C)o2)c([N+](=O)[O-])c1 as the compound, how does the Potency read?
A: inconclusive: 23.1 µM [cytotoxic, single point]

Q: With Cn1c(=O)c2c(nc(N3CCc4ccccc4C3)n2Cc2ccccc2F)n(C)c1=O as the compound, how does the Potency read?
A: inconclusive: 14.1 µM [cytotoxic, single point]

Q: For COc1ccc2c(c1)c(=O)oc1cc(OCC(=O)NC3CCCCC3)ccc12, which Potency is on record?
A: inactive

Q: With COc1cccc(CN(C)CC(=O)Nc2cccc(S(=O)(=O)N(C)c3ccccc3)c2)c1OC as the compound, how does the Potency read?
A: inconclusive: 16.4 µM [cytotoxic, single point]

Q: With CCCCN1C(C(=O)c2ccccc2)=C(OC(=O)CC)c2ccccc2S1(=O)=O as the compound, how does the Potency read?
A: active: 14.6 µM

Q: For CC(=O)NC(CC(=O)N1CCN(C(C)=O)CC1)c1ccccc1 (stereo not given), which Potency is on record?
A: inactive

Q: With COC(=O)c1ccc(CNC(=O)COC(=O)c2ccccc2-c2ccccc2)cc1 as the compound, how does the Potency read?
A: inactive

Q: Which Potency does the source give for CCOC(=O)C1=C(Nc2ccccc2)CC(C)(O)C(C(=O)OCC)C1c1ccc(Br)cc1 (stereo not given) here?
A: inconclusive: 18.4 µM [cytotoxic, single point]

Q: Which Potency does the source give for COc1cccc(N2CCc3c(C)nc4ccc(Cl)cc4c32)c1 here?
A: inconclusive: 20.6 µM [cytotoxic, partial curve, poor fit]

Q: For COc1ccc(-c2cc(-c3nnc(COC(=O)C4CC4)o3)c3ccccc3n2)cc1OC, which Potency is on record?
A: inconclusive: 25.9 µM [rising, partial curve, poor fit]

Q: For Cc1ccsc1C1C(C(=O)O)c2ccccc2C(=O)N1C (stereo not given), which Potency is on record?
A: inactive

Q: With COc1ccc(C(=O)N2CCN(c3nc(C4CC4)nc4sc(C)c(C)c34)CC2)cc1 as the compound, how does the Potency read?
A: inconclusive: 16.4 µM [cytotoxic, single point]

Q: For O=C(CSc1nnc(-c2ccccc2Br)o1)Nc1nncs1, which Potency is on record?
A: inactive

Q: Which Potency does the source give for O=C1C(Cl)=C(Nc2ccc3cn[nH]c3c2)C(=O)c2ccccc21 here?
A: inconclusive: 3.26 µM [cytotoxic, full curve, poor fit]

Q: With O=C(/C=C\Nc1ccc2c(c1)OCO2)c1cccs1 as the compound, how does the Potency read?
A: inconclusive: 29.1 µM [cytotoxic, single point]

Q: With COc1ccccc1NCc1cccn1-c1nnc(N2CCCCCC2)s1 as the compound, how does the Potency read?
A: inconclusive: 23.1 µM [cytotoxic, single point]

Q: Which Potency does the source give for Nc1nc2ccc(Cl)cc2cc1C(=O)NCCc1ccc(O)cc1 here?
A: inconclusive: 29.1 µM [cytotoxic, single point]

Q: For Cc1noc(C)c1COc1ccccc1C(=O)NCc1ccccc1Cl, which Potency is on record?
A: inactive

Q: For COCCCN(C(C)=O)c1nc(-c2ccc(OC)cc2)cs1, which Potency is on record?
A: active: 11.6 µM

Q: With COc1ccc(C2C3(C#N)C(N)=NC(OC)(OC)C23C#N)cc1 (stereo not given) as the compound, how does the Potency read?
A: inconclusive: 29.1 µM [cytotoxic, single point]

Q: With CCCCn1c(N)c(N(CC(C)C)C(=O)CSCc2cccc(C)c2)c(=O)[nH]c1=O as the compound, how does the Potency read?
A: inconclusive: 0.206 µM [rising, full curve, poor fit]

Q: For CCOc1ccc(S(=O)(=O)Nc2ccc3oc(C)c(C(=O)OC(C)C)c3c2)cc1, which Potency is on record?
A: inconclusive: 20.6 µM [cytotoxic, single point]

Q: With O=C(CCS(=O)(=O)c1ccccc1)OCc1ccc([N+](=O)[O-])cc1 as the compound, how does the Potency read?
A: inactive

Q: Which Potency does the source give for Cc1ccccc1-n1ncc2c([N+](=O)[O-])cc([N+](=O)[O-])cc21 here?
A: inconclusive: 23.1 µM [cytotoxic, single point]

Q: Which Potency does the source give for CCn1ncc(C2=NOC(C(=O)Nc3ccccc3C(=O)OC)C2)c1C (stereo not given) here?
A: inconclusive: 18.4 µM [cytotoxic, single point]

Q: Which Potency does the source give for O=C(Nc1ccccn1)c1ccc(Cl)c([N+](=O)[O-])c1 here?
A: inactive

Q: Which Potency does the source give for O=C(Nc1ccccc1)N(Cc1cccs1)c1ccc(F)cc1 here?
A: inactive

Q: For Cc1ccc(NC(=O)c2cc(S(=O)(=O)N3CCc4ccccc43)cn2C)cc1, which Potency is on record?
A: inconclusive: 29.1 µM [cytotoxic, single point]

Q: With Cc1n[nH]c(C)c1S(=O)(=O)N1CCCC(C(=O)NCc2ccc(F)cc2)C1 (stereo not given) as the compound, how does the Potency read?
A: inactive

Q: Which Potency does the source give for COc1cccc(CNC(=O)c2cc(S(=O)(=O)N3CCCCCC3)cn2C)c1 here?
A: inactive

Q: For COc1ccc(-c2nc(NCCN(C)C)nc3ccsc23)c(C)c1, which Potency is on record?
A: inactive

Q: With COc1ccc(-c2ccoc2)cc1[C@H]1[C@H]2C=CC[C@@H](C)[C@@H]2C(=O)N1Cc1ccccc1 as the compound, how does the Potency read?
A: inconclusive: 13 µM [cytotoxic, partial curve, poor fit]

Q: With COc1ccc(CC(N)c2csc(NC(=O)Nc3ccc(C(C)C)cc3)n2)cc1 (stereo not given) as the compound, how does the Potency read?
A: inconclusive: 29.1 µM [cytotoxic, single point]

Q: Which Potency does the source give for Cc1ccc(CNC(=O)CCCn2nc(C)c3c(C)n(-c4ccccc4)nc3c2=O)cc1 here?
A: inconclusive: 25.9 µM [cytotoxic, single point]

Q: For O=C1N/C(=C/c2ccc(Br)cc2)C(O)=C1C=NCc1ccccc1, which Potency is on record?
A: active: 4.61 µM

Q: With CSc1ccc(-c2cccc3nncn23)cc1 as the compound, how does the Potency read?
A: inactive

Q: Which Potency does the source give for CN(C(=O)COC(=O)c1c2c(nc3ccccc13)/C(=C/c1cccc([N+](=O)[O-])c1)CCC2)C1CCS(=O)(=O)C1 (stereo not given) here?
A: active: 5.8 µM

Q: For COc1ccc(OC)c(NC(=O)C2=C(C)NC(=O)NC2c2cccs2)c1 (stereo not given), which Potency is on record?
A: inactive

Q: Which Potency does the source give for COc1ccccc1CC(=O)Nc1ccc([N+](=O)[O-])cc1O here?
A: inconclusive: 0.651 µM [cytotoxic, full curve, poor fit]

Q: For O=C(Oc1cc(=O)oc2c1c(=O)n1c3c(cccc23)CC1)c1ccccc1, which Potency is on record?
A: inactive

Q: With O=C(O)CCSCc1ccccc1F as the compound, how does the Potency read?
A: inconclusive: 20.6 µM [rising, single point]

Q: For COC(=O)c1ccc(C2=NOC(C)(c3nnc(-c4cccc(Cl)c4)o3)C2)cc1 (stereo not given), which Potency is on record?
A: inconclusive: 16.4 µM [rising, partial curve, poor fit]

Q: With COC(=O)c1ccc2nc(-c3ccc(Cl)cc3)c(CC3CCCCC3)n2c1 as the compound, how does the Potency read?
A: inconclusive: 25.9 µM [cytotoxic, single point]

Q: Which Potency does the source give for COc1cccc(-c2cc(C(=O)Nc3cc(OC)c(OC)c(OC)c3)no2)c1 here?
A: inconclusive: 13 µM [cytotoxic, partial curve, poor fit]
